The chains behind the UniProt entries cited, without tags or fusion partners. Where a name states a change or a piece, a line headed by the entry shows the natural chain unless it says otherwise.
UniProt Q9UNA4: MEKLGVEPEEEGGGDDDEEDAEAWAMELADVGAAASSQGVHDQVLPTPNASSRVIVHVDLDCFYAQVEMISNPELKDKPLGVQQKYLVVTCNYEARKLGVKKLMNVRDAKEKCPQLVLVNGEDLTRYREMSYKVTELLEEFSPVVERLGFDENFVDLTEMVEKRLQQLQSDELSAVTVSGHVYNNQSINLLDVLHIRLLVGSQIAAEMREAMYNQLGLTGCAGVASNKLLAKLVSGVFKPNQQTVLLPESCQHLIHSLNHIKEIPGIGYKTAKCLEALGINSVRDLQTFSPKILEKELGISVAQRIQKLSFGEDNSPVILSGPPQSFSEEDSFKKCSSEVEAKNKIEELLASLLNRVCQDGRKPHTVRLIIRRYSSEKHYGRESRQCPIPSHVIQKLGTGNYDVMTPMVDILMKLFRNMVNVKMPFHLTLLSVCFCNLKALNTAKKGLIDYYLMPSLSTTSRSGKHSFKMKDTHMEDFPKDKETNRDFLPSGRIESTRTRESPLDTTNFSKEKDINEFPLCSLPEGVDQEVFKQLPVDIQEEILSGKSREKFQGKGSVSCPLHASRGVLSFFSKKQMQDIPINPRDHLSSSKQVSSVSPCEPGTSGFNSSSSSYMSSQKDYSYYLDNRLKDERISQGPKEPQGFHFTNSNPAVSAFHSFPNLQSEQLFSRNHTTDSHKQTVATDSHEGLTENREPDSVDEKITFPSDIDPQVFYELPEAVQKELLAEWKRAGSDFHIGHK

The whole screen tested about 390,000 compounds, of which about 4,000 (1%) were called active. The shares of active, inactive and inconclusive entries below differ from those in the screen. The call rests on the fitted dose curve; in most records, active means well fitted inhibition curve with a large enough effect; inconclusive means small, poorly fitted or top-dose-only effect, or another doubt; inactive means no such curve, though single readings can be large or run the other way. Potencies of inconclusive entries are doubtful fits and often do not repeat.
These compounds were tested against DNA polymerase iota (Homo sapiens) (UniProt Q9UNA4) (assay: qHTS for Inhibitors of Polymerase Iota). Settings: Pol iota fluorescent replication assay, 10 min; series mostly up to 115 µM.
How it was run: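 Pol iota at 10 nM preincubated 15 min with compounds at room temperature; reaction started with fluorescent substrate, 50 nM final. Fluorescence read kinetically at 0 and 10 min; buffer-only wells as negative control.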
`CCn1c(CNC(=O)c2ccccc2Br)nnc1SCC(=O)Nc1nncs1` was tested, and the Potency was “inactive”.
With `Cc1ccc(CNC(=O)CCc2c(C)nc3c4c(C)cc(C)nc4nn3c2C)cc1` the Potency was “inactive”.
In the case of `Cc1cc(OC(C)C(=O)NC(Cc2c[nH]c3ccc(O)cc23)C(=O)O)c2c(C)c(C)c(=O)oc2c1` (configuration not stated), the Potency is reported as inconclusive: 50.1 µM [inhibitor, partial curve].
For `Cc1cccc(Nc2ccccc2C(=O)OCC(=O)NCc2ccco2)c1C`, the Potency was inconclusive: 28.2 µM [inhibitor, single point].
For `COc1ccc(/C=C/C(=O)c2ccncc2)c2ccccc12`, the Potency was inconclusive: 7.08 µM [inhibitor, full curve, poor fit].
With `N#CC(=Cc1ccc(O)cc1)C(N)=C(C#N)C#N` the Potency was “inactive”.
For `Cc1nc(Nc2nc(-c3ccccc3)cc(=O)[nH]2)nc2ccccc12`, the Potency was “inactive”.
With `Cc1cc(S(=O)(=O)NC2CCCCC2)c(C)s1` the Potency was “inactive”.
For `COC(=O)c1cc(CSc2ncnc3sccc23)oc1C`, the Potency was inconclusive: 31.6 µM [inhibitor, partial curve, poor fit].
`COc1ccc(CNC(=O)c2cc3ccccc3oc2=O)cc1` was tested, and the Potency was inconclusive: 6.31 µM [inhibitor, full curve, poor fit].
With `COc1cccc(-c2c(C(=O)N/N=C/c3cccs3)nnn2-c2nonc2N)c1` the Potency was inconclusive: 70.8 µM [inhibitor, partial curve, poor fit].
In the case of `CCN(CC)c1ccc(/C=C/c2c(C)cnc3ccc(C)cc23)cc1`, the Potency is reported as inconclusive: 79.4 µM [inhibitor, partial curve, poor fit].
In the case of `S=C(NCc1ccco1)N1CCN(c2cccc(Cl)c2)CC1`, the Potency is reported as “inactive”.
For `CCCSc1nc(O)c(C2OC(=O)c3c2ccc(OC)c3OC)c(=O)n1C` (configuration not stated), the Potency was inconclusive: 1.26 µM [inhibitor, full curve, poor fit].
`O=C(c1ccc(-c2ccc([N+](=O)[O-])cc2)o1)N1CCCCCCC1` was tested, and the Potency was inconclusive: 10 µM [inhibitor, full curve].
With `Cc1ccccc1N1CC(c2nc3ccccc3n2Cc2ccc(Br)cc2)CC1=O` (configuration not stated) the Potency was “inactive”.
`COc1ccccc1NC(=O)Cn1c(=O)n(CC2CCC(C(=O)NCCc3ccccc3)CC2)c(=O)c2ccccc21` (configuration not stated) was tested, and the Potency was “inactive”.
With `CCC(=O)N(C(=O)CC)N1CCN(c2ccncc2S(=O)(=O)N2CCCCC2)CC1` the Potency was inconclusive: 79.4 µM [inhibitor, partial curve, poor fit].
`CCOc1ccc(Sc2cc(C(=O)NCc3ccccc3Cl)c3ccccc3n2)cc1` was tested, and the Potency was “inactive”.
With `CC(=O)c1ccccc1NC(=O)CSc1n[nH]c(=O)n1C1CC1` the Potency was inconclusive: 100 µM [inhibitor, single point].
With `Cc1nnc(SCC(=O)Nc2ccc(N(C)C)cc2)[nH]c1=O` the Potency was inconclusive: 56.2 µM [inhibitor, partial curve, poor fit].
`Cc1ccccc1-n1c(C)c(C#N)c(=O)c(-[n+]2ccccc2)c1[S-]` was tested, and the Potency was inconclusive: 79.4 µM [inhibitor, single point].
In the case of `COCCSc1nc2c(c(=O)[nH]c(=O)n2C)n1CCCc1ccccc1`, the Potency is reported as “inactive”.
`CCc1ccc(Sc2cc(C(=O)NCCCN3CCC(C)CC3)c3ccccc3n2)cc1` was tested, and the Potency was “inactive”.
`CCOc1ccc(/C=C/c2nc(C#N)c(N3CCC(C)CC3)o2)cc1` was tested, and the Potency was “inactive”.
`Nc1nc(-c2cccs2)c(CC(=O)O)s1` was tested, and the Potency was inconclusive: 63.1 µM [inhibitor, partial curve, poor fit].
`O=C(OC(C(=O)NC1CCCCC1)c1ccccc1F)c1ccco1` (configuration not stated) was tested, and the Potency was “inactive”.
In the case of `COc1ccc(C(=O)CC(c2ccccc2)C2C(=O)CCCC2=O)cc1` (configuration not stated), the Potency is reported as inconclusive: 28.2 µM [inhibitor, full curve, poor fit].
`CC(C)C[C@@H](CNCC(=O)[C@H](C)NC(=O)c1[nH]cnc1C(=O)N[C@H](CN)CC(C)C)NC(=O)c1nc[nH]c1C(=O)N[C@@H](C)C(=O)O` was tested, and the Potency was inconclusive: 25.1 µM [inhibitor, partial curve, poor fit].
With `O=C(c1ccc2nc(-c3ccco3)c(-c3ccco3)nc2c1)N1CCN(c2ccccc2)CC1` the Potency was inconclusive: 44.7 µM [inhibitor, partial curve].
For `CCCCn1c(SCC(=O)NC(=O)Cc2ccccc2)nc2ccccc2c1=O`, the Potency was “inactive”.
With `O=C(CSc1ncn[nH]1)c1ccco1` the Potency was inconclusive: 3.16 µM [inhibitor, single point].
`O=C1/C(=C/c2ccccc2Cl)SC(=S)N1CCCC(=O)N(CCO)c1ccccc1` was tested, and the Potency was “inactive”.
`CCN(CC)C(=O)Cn1cc(S(=O)(=O)CC(=O)NC2CCCCC2)c2ccccc21` was tested, and the Potency was “inactive”.
In the case of `O=C(O)c1cc(=O)c2c3nc4ccccc4oc-3cc(=O)c2[nH]1`, the Potency is reported as inconclusive: 20 µM [inhibitor, full curve, poor fit].
With `COc1ccc(CNC(=O)C(=O)Nc2cccc(C)c2C)cc1` the Potency was inconclusive: 89.1 µM [inhibitor, partial curve, poor fit].
In the case of `Cc1ccc(C(=O)Nc2sc3c(c2C(=O)O)CCCCC3)o1`, the Potency is reported as inconclusive: 28.2 µM [inhibitor, single point].
With `CN(C)c1ccc(N=Nc2ccc(/C=C/c3ccnc4ccccc34)cc2)cc1` the Potency was inconclusive: 31.6 µM [inhibitor, single point].
In the case of `O=C(Cn1c(=O)n(Cc2ccc(C(=O)NCc3ccc4c(c3)OCO4)cc2)c(=O)c2ccccc21)Nc1ccc(F)cc1F`, the Potency is reported as inconclusive: 25.1 µM [inhibitor, single point].
`O=S(=O)(Nc1cc(S(=O)(=O)N2CCOCC2)ccc1O)c1ccc2c(c1)OCCCO2` was tested, and the Potency was inconclusive: 56.2 µM [inhibitor, partial curve, poor fit].
In the case of `COc1ccc(OC)c(-n2c(C)nc3cc(C(=O)O)ccc32)c1`, the Potency is reported as “inactive”.
`Cc1cc2c3c(c1)C1(SCC(=O)N1c1ccc(F)cc1)C(=O)N3C(C)(C)CC2C` (configuration not stated) was tested, and the Potency was inconclusive: 17.8 µM [inhibitor, full curve, poor fit].
With `CCCCn1c(SCC(=O)NC(=O)NCc2ccco2)nc2cc(S(N)(=O)=O)ccc21` the Potency was inconclusive: 35.5 µM [inhibitor, partial curve, poor fit].
With `CO/N=C/NC(=O)c1c(OC)ccnc1Oc1cccc(C(F)(F)F)c1` the Potency was inconclusive: 89.1 µM [inhibitor, single point].
For `Nc1nncn1C(=O)c1ccccc1Cl`, the Potency was inconclusive: 10 µM [inhibitor, partial curve, poor fit].
In the case of `CCCCNC(=O)CN1C(=O)c2c(c3ccccc3n2C)C1c1ccc(OC)cc1` (configuration not stated), the Potency is reported as “inactive”.
In the case of `CCCCNc1c(-c2ccc(OC)c(Sc3ccc(OC)cc3)c2)nc2ccccn12`, the Potency is reported as inconclusive: 7.94 µM [inhibitor, full curve, poor fit].
For `COc1ccc(C(=O)NC(=S)Nc2cccc3cc(O)ccc23)cc1OC`, the Potency was inconclusive: 14.1 µM [inhibitor, partial curve].
In the case of `COc1ccc2nc(SCC(=O)NCc3ccc(F)cc3)[nH]c2c1`, the Potency is reported as inconclusive: 89.1 µM [inhibitor, partial curve, poor fit].
In the case of `COc1cccc(/C(O)=C2/C(=O)C(=O)N(CCN(C)C)C2c2ccccn2)c1` (configuration not stated), the Potency is reported as inconclusive: 15.8 µM [inhibitor, single point].
For `O=C(CN1C(=O)S/C(=C/c2cccn2-c2ccc(O)cc2)C1=O)N1CCCC1`, the Potency was “inactive”.
In the case of `c1ccc(CC2CNc3ccccc3CN2)cc1` (configuration not stated), the Potency is reported as inconclusive: 17.8 µM [inhibitor, partial curve, poor fit].
For `CC(=O)c1ccc(NS(=O)(=O)c2cccc(C(=O)Nc3ccccc3C(=O)O)c2)cc1`, the Potency was “inactive”.
For `Cc1cc(=O)n2[nH]c(NCc3c(F)cccc3Cl)nc2n1`, the Potency was inconclusive: 89.1 µM [inhibitor, partial curve, poor fit].
With `CCCCCCCCCCCCCCCCCCN(CCCCCCCCCCCCCCCCCC)c1ccc(/C=C/c2ccc(C=O)cc2)cc1` the Potency was “inactive”.
`O=C(NCCCc1cnc[nH]1)NCCCN(Cc1ccc(Cl)cc1)c1ccc(Br)cn1` was tested, and the Potency was inconclusive: 39.8 µM [inhibitor, full curve, poor fit].
In the case of `CCOc1cc(/C=C(\C#N)c2nc3ccccc3[nH]2)ccc1OC(C)C(=O)O` (configuration not stated), the Potency is reported as “inactive”.
In the case of `CCCn1c(SCC(=O)c2ccc3c(c2)OCCO3)nnc1C(C)C`, the Potency is reported as inconclusive: 7.08 µM [inhibitor, single point].
With `CCOC(=O)c1sc(=S)n(-c2ccc(C)cc2)c1N` the Potency was “inactive”.
For `COCCCn1c(SCC(=O)n2c(C)c(C)c3ccccc32)nnc1-c1ccoc1C`, the Potency was inconclusive: 39.8 µM [inhibitor, single point].
`O=C(NCc1ccccc1)c1ccc2c(c1)N(Cc1ccccc1)C(=O)c1ccccc1S2(=O)=O` was tested, and the Potency was inconclusive: 22.4 µM [inhibitor, single point].
With `O=C(CCC1COc2ccccc2O1)NCc1ccco1` (configuration not stated) the Potency was inconclusive: 35.5 µM [inhibitor, partial curve, poor fit].
With `NCCc1nnc(SCc2c(F)cccc2Cl)o1` the Potency was inconclusive: 79.4 µM [inhibitor, partial curve, poor fit].
In the case of `Cc1ccc(NC(CC(=O)c2ccccc2)C(=O)O)cc1Cl` (configuration not stated), the Potency is reported as inconclusive: 20 µM [inhibitor, partial curve].
In the case of `O=C(c1cnc2c(c1)COc1ccccc1-2)c1ccccc1O`, the Potency is reported as “inactive”.
In the case of `Cc1c2ccccc2nc2c(F)c(NCCO)c(F)c(F)c12`, the Potency is reported as inconclusive: 14.1 µM [inhibitor, full curve, poor fit].
In the case of `Cc1nnc(SCC(=O)NC2CCCCCC2)n1C(C)C`, the Potency is reported as inconclusive: 100 µM [inhibitor, single point].
Potency means the concentration at half of the fitted maximal effect.
